The campaign covered roughly 360,000 compounds. About 610 (0.17%) were called active. The inconclusive results got no clear call from the source; some entries with a clear call stand among them for comparison. Cut-off read from the data, not from the text of the source: active = inhibition above about 30%; inconclusive = no clear call, values can overlap the other calls; inactive = below that.
These compounds were tested on Botulinum neurotoxin type A light chain protease (Clostridium botulinum A str. ATCC 3502) (assay: blockers of BoNT/A LC substrate cleavage – biochemical, flow cytometry, MLPCN library, primary screen (AID 588499; note: plate controls were buffer without enzyme for full effect and enzyme alone for no effect)). Details: multiplex microsphere protease substrate cleavage, at 10 µM, active compounds read high.

Question: For `CC1=NN(c2ccc(C(=O)OC(C)C)cc2)C(=O)/C1=C\C=C\c1ccco1`, which inhibition is on record?
Answer: inactive: 1.8%

Question: For `Cc1[nH]c(=O)[nH]c(=O)c1S(=O)(=O)NCC12CC3CC(CC(C3)C1)C2`, which inhibition is on record?
Answer: inconclusive: -4.5%

Question: Which inhibition does the source give for `O=C(O)[C@H]1CCCC[C@H]1C(=O)NCCNC(=O)[C@@H]1CCCC[C@@H]1C(=O)O` here?
Answer: inconclusive: -0.5%

Question: How did the inhibition turn out when `C=CCOC(=O)C1=C(C)NC(=S)NC1/C=C/c1ccccc1` (configuration not stated) was run?
Answer: inactive: -4.6%

Question: How did the inhibition turn out when `CCc1cc2c(Nc3ccc(O)cc3)nc(C)nc2s1` was run?
Answer: inconclusive: -1.5%

Question: `CCCCN1C(=O)/C(=C2\SC(N3CCCCC3)=NC2=O)c2ccccc21` was tested. Which inhibition did it give?
Answer: inconclusive: -1.1%

Question: `COc1ccc(NC(=O)c2cccc(OC(F)F)c2)cc1Cl` was tested. Which inhibition did it give?
Answer: inconclusive: 2.1%

Question: `O=C(O)CCC(=O)CCC(=O)c1ccccc1` was tested. Which inhibition did it give?
Answer: inconclusive: -1.9%

Question: Which inhibition does the source give for `Fc1ccccc1CCNc1c2c(nc3ncnn13)CCCC2` here?
Answer: inactive: -0.4%

Question: For `Cn1c(Cn2nnc(-c3ccccc3)n2)nnc1SCc1ccccc1Cl`, which inhibition is on record?
Answer: inconclusive: 1.7%

Question: With `C=CCSc1nc2c(cc1C#N)CCC2` as the compound, how does the inhibition read?
Answer: inconclusive: 7%

Question: For `COCCCn1c(=O)/c(=C\c2ccccc2OC(F)F)s/c1=C(/C#N)C(=O)NCCOC`, which inhibition is on record?
Answer: inactive: -0.4%

Question: With `Cc1nc2c(-c3ccccc3)c(C)nn2c(C)c1CCC(=O)N1CCC2(CC1)OCCO2` as the compound, how does the inhibition read?
Answer: inconclusive: 23.7%

Question: How did the inhibition turn out when `COc1ccc(C(=O)Cn2c(C)nc([N+](=O)[O-])c2Br)cc1` was run?
Answer: inconclusive: 23.6%

Question: Which inhibition does the source give for `O=C(OCCN1C(=O)c2ccccc2C1=O)C1CCN(S(=O)(=O)c2cccs2)CC1` here?
Answer: inconclusive: -1.1%

Question: Which inhibition does the source give for `CCc1ccccc1NC(=O)CN1CCC(NC(=O)COC)CC1` here?
Answer: inconclusive: -1.5%

Question: How did the inhibition turn out when `O=C(O)c1cn(-c2ccccc2)nc1-c1ccc(Cl)cc1` was run?
Answer: inactive: -6%

Question: Which inhibition does the source give for `Cc1cccc(NC(=S)NCc2ccc3c(c2)cc(C)n3C)c1C` here?
Answer: active: 47.2%

Question: For `Cc1ccc2sc(N(CCCN(C)C)C(=O)c3nc4ccccc4s3)nc2c1C`, which inhibition is on record?
Answer: inactive: -0.1%

Question: `CC(=O)c1ccc(OCCCC(=O)NC2=NCCS2)cc1` was tested. Which inhibition did it give?
Answer: inconclusive: -2.1%

Question: For `C/C(=N\NC(=O)Cc1ccccc1)c1ccc(Cl)s1`, which inhibition is on record?
Answer: inactive: 0.7%

Question: How did the inhibition turn out when `CC(=O)c1ccc2c(c1)OCCOCCOCCO2` was run?
Answer: inconclusive: 7.2%

Question: With `Cc1cccc(-c2nnc3n2N=C(c2ccccc2)CS3)c1` as the compound, how does the inhibition read?
Answer: inconclusive: -1.2%

Question: How did the inhibition turn out when `CC(CC1CC(C)(C)OC1=O)C(=O)Nc1nncs1` (configuration not stated) was run?
Answer: inconclusive: 6.8%

Question: Which inhibition does the source give for `c1ccc2c(c1)CCN2CCN1CCc2ccccc21` here?
Answer: inconclusive: 2.2%

Question: `CCOC(=O)N1CCC(N2CCN(S(=O)(=O)c3ccc(Cl)cc3)CC2)CC1` was tested. Which inhibition did it give?
Answer: inconclusive: 2.8%

Question: With `Cc1nc(NCC2CCCO2)c2nnn(Cc3ccccc3)c2n1` (configuration not stated) as the compound, how does the inhibition read?
Answer: inconclusive: 3.7%

Question: For `COC(=O)c1ccc(NC(=O)CSc2nnc(-c3ccncc3)n2C)cc1`, which inhibition is on record?
Answer: inconclusive: -3.8%

Question: For `CCc1ccc2c(c1)C(c1cccs1)=NNC(c1cccnc1)=N2`, which inhibition is on record?
Answer: inconclusive: 3.5%

Question: For `N#Cc1c(N)n(-c2ccc(N)cc2)c2nc3ccccc3nc12`, which inhibition is on record?
Answer: inconclusive: 5.7%

Question: With `Cc1ccc(C(=O)Nc2ccccc2OC(F)F)cc1` as the compound, how does the inhibition read?
Answer: inconclusive: -1%

Question: `O=C1NC[C@@H](CCCCN2C[C@H](Cc3ccc(O)cc3)N(CC3CCCCC3)C(=O)C2=O)N(CC2CCCCC2)C1=O` was tested. Which inhibition did it give?
Answer: inactive: 0.6%

Question: With `Cc1cnc(NC(=O)c2ccc(-c3nc4ccccc4s3)o2)s1` as the compound, how does the inhibition read?
Answer: active: 34.4%

Question: With `CCC1(CC)Nc2ccccc2C(=O)N1c1ccc(OC)cc1` as the compound, how does the inhibition read?
Answer: inconclusive: 9.5%

Question: How did the inhibition turn out when `Cc1ccccc1C(=O)N1CCC(C(=O)NC2CCCC2)CC1` was run?
Answer: inactive: -1.8%

Question: Which inhibition does the source give for `O=C(NCc1cccc(C(F)(F)F)c1)C1CCCN(c2ncccn2)C1` (configuration not stated) here?
Answer: inconclusive: 2.7%

Question: `Cc1ccc(CN2CC(C(=O)N3CCN(S(=O)(=O)c4cccc(F)c4)CC3)CC2=O)cc1` (configuration not stated) was tested. Which inhibition did it give?
Answer: inconclusive: -1.9%

Question: For `Cc1nn(-c2ccccc2)c(Cl)c1/C=N/Nc1ccc(S(=O)(=O)Nc2ccccc2C(=O)O)cc1[N+](=O)[O-]`, which inhibition is on record?
Answer: inconclusive: 3.8%

Question: With `CC(C)(C)c1cc(NCCCn2ccnc2)n2ncc(-c3ccc(Cl)cc3)c2n1` as the compound, how does the inhibition read?
Answer: inconclusive: -6%

Question: For `CC1(C)Cc2nc3sc4c(=O)n(CC(N)=O)cnc4c3cc2CO1`, which inhibition is on record?
Answer: inactive: 0%

Question: With `CCOc1ccc(N=C/C=C/c2ccccc2)c(O)c1` as the compound, how does the inhibition read?
Answer: active: 35.1%

Question: With `OCC[C@H]1C[C@H](O)[C@@H](O)[C@@]2(CCc3ccccc3O2)O1` as the compound, how does the inhibition read?
Answer: inactive: -0.1%

Question: Which inhibition does the source give for `Cn1nnnc1SCC(=O)Nc1ccccn1` here?
Answer: inconclusive: 4%

Question: How did the inhibition turn out when `COc1ccccc1Nc1nc(NCC(C)C)nc(N)c1[N+](=O)[O-]` was run?
Answer: inconclusive: 0%

Question: How did the inhibition turn out when `COc1ccc(S(=O)(=O)N2CCOC2CNC(=O)C(=O)NCc2ccc3c(c2)OCO3)cc1C` (configuration not stated) was run?
Answer: inactive: -0.8%

Question: `Cc1cc(C)cc(NC(=S)N=Nc2c(O)n(C)c3ccc(S(=O)(=O)N4CCOCC4)cc23)c1` was tested. Which inhibition did it give?
Answer: active: 36.8%

Question: For `Cc1cc(C)n(-c2ccc3nnc(C)n3n2)n1`, which inhibition is on record?
Answer: inconclusive: 23.9%

Question: How did the inhibition turn out when `COc1cc(NC(N)=S)c(OC)cc1Cl` was run?
Answer: inconclusive: -54.5%

Question: Which inhibition does the source give for `O=S(=O)(Nc1ccc(OC(F)(F)F)cc1)c1cccc2nonc12` here?
Answer: inconclusive: 16.1%

Question: For `O=C(NNc1ccc(C2CCCCC2)cc1)C(O)(c1ccccc1)c1cccs1` (configuration not stated), which inhibition is on record?
Answer: inconclusive: 0.9%

Question: For `COc1ccc2cc(C(c3nnnn3C3CCCC3)N3CCc4ccccc4C3)c(=O)[nH]c2c1` (configuration not stated), which inhibition is on record?
Answer: inactive: 1.7%

Question: `O=c1[nH]c2cccnc2n1Cc1ccco1` was tested. Which inhibition did it give?
Answer: inconclusive: -3%

Question: `Cc1ccc(NC(=O)CN(C)C(=O)c2ccccc2OCc2c(C)noc2C)cc1` was tested. Which inhibition did it give?
Answer: active: 89%

Question: `CC(C)(C)CC(C)(C)NC(=S)Nc1ccc2nc(-c3ccccn3)c(-c3ccccn3)nc2c1` was tested. Which inhibition did it give?
Answer: active: 41.5%

Question: How did the inhibition turn out when `CC1=NN2C(=N)/C(=C\c3cc(C)n(-c4ccc(C)cc4)c3C)C(=O)N=C2S1` was run?
Answer: inconclusive: 20%

Question: For `Cc1cc(NS(=O)(=O)c2ccc(NC(=O)COc3ccccc3Cl)cc2)no1`, which inhibition is on record?
Answer: inactive: -3.6%

Question: How did the inhibition turn out when `N#Cc1c(-c2cccc(Cl)c2)[nH]c(=S)[nH]c1=O` was run?
Answer: inactive: 0.1%

Question: For `CCOC(=O)COc1ccccc1-c1ccno1`, which inhibition is on record?
Answer: inconclusive: -3.4%

Question: Which inhibition does the source give for `COCCN1CSC(=S)N(Cc2ccco2)C1` here?
Answer: inactive: 4.2%

Question: How did the inhibition turn out when `COc1ccc(Nc2nnc(-c3ccc(C(=O)NCCO)cc3)c3ccccc23)cc1` was run?
Answer: inconclusive: 2%

Question: With `O=c1oc(-c2ccccc2)nc2sc3c(c12)CCCC3` as the compound, how does the inhibition read?
Answer: inactive: -1.8%

Question: How did the inhibition turn out when `CCCCCCCCCCOC(=O)c1csc2nnsc12` was run?
Answer: inconclusive: -0.6%

Question: How did the inhibition turn out when `COc1ccc(C(=O)OCC(=O)c2ccc3[nH]c(=O)[nH]c3c2)c(OC)c1OC` was run?
Answer: inactive: -0.2%

Question: For `CCN(C(=O)c1ccc(S(=O)(=O)N(C)C)cc1)C(C)C(=O)Nc1ccc(C)cc1` (configuration not stated), which inhibition is on record?
Answer: inactive: -1.6%

Question: How did the inhibition turn out when `Cc1ccc(C(=O)NCc2ccc(N3CCN(C(=O)OC(C)(C)C)CC3)cc2)cc1` was run?
Answer: inconclusive: -2.3%

Question: `Cc1oc(-c2ccc(Cl)cc2)nc1CN1CCCC(C(=O)NCCCN2CCOCC2)C1` (configuration not stated) was tested. Which inhibition did it give?
Answer: inconclusive: -3.8%

Question: For `Cc1cnc(C(=O)OCC(=O)c2c[nH]c3ccccc23)cn1`, which inhibition is on record?
Answer: inactive: 4.9%

Question: Which inhibition does the source give for `CCN(CC)S(=O)(=O)c1ccc(N2CCOCC2)c(NC(=O)c2cc3ccccc3o2)c1` here?
Answer: inactive: -0.7%

Question: `Cc1ccc2c(c1)C(=C(C#N)C#N)C(=O)N2CCN1CCOCC1` was tested. Which inhibition did it give?
Answer: inconclusive: 2.9%

Question: How did the inhibition turn out when `Cc1cccc(NCC(=O)N/N=C\c2ccc[nH]2)c1` was run?
Answer: inconclusive: -2%

Question: With `O=c1cc(CO)occ1OCc1cccc(F)c1` as the compound, how does the inhibition read?
Answer: inconclusive: 5.2%

Question: With `Cc1coc2c1c(C)cc1oc(=O)c(CC(=O)N[C@@H](CC(C)C)C(=O)O)c(C)c12` as the compound, how does the inhibition read?
Answer: inactive: 0.6%

Question: `FC(F)(F)c1cnc(Sc2nc3nccc(-c4ccc(Cl)cc4)n3n2)c(Cl)c1` was tested. Which inhibition did it give?
Answer: inactive: 0.1%

Question: `COC(=O)c1c(C)nn(-c2ccc(F)c(Cl)c2)c1-c1cc(C)on1` was tested. Which inhibition did it give?
Answer: inconclusive: -34.6%

Question: For `CC(=O)N1c2ccc(S(=O)(=O)N3CCCCC3)cc2CC1C(=O)Nc1ccc(F)cc1C` (configuration not stated), which inhibition is on record?
Answer: inconclusive: 0.4%

Question: `Cc1cc(C)cc(NC(=O)N2CCCN(c3c(Cl)cncc3Cl)CC2)c1` was tested. Which inhibition did it give?
Answer: inconclusive: -39.4%

Question: For `N[C@@H](Cc1ccccc1)c1nnc(SCc2ccccc2Cl)o1`, which inhibition is on record?
Answer: inconclusive: 1.4%

Question: For `O=c1cc(-c2ccccc2)oc2ccccc12`, which inhibition is on record?
Answer: inactive: -0.3%

Question: Which inhibition does the source give for `Nc1ccccc1C(=O)N1CCc2ccccc21` here?
Answer: inactive: 1.4%

Question: For `CCCNC(=O)C1(C)CCCN(Cc2cccc(C#N)c2)C1` (configuration not stated), which inhibition is on record?
Answer: inactive: 0.2%

Question: Which inhibition does the source give for `CCCCN(CCCNC(=O)CN1C(=O)COc2ccccc21)c1ccccc1` here?
Answer: inconclusive: 20.4%

Question: With `Cn1cc(C(=O)C(=O)NC2CCCCC2)c2ccccc21` as the compound, how does the inhibition read?
Answer: inactive: -1.4%

Question: For `CC(C)(C)c1ccc(C(=O)N2CCCC2)s1`, which inhibition is on record?
Answer: inconclusive: -22.5%

Question: `CCOc1cc(/C=N/Nc2cc(C)nc3ccc(C)cc23)ccc1O` was tested. Which inhibition did it give?
Answer: inconclusive: 4.6%

Question: Which inhibition does the source give for `COc1cc(NC(=O)C2CC2)c(C(=O)O)cc1OC` here?
Answer: inconclusive: 0.9%

Question: How did the inhibition turn out when `CC1=CC2=NC(=O)CC(C)(C(=O)N(CC(=O)NC3CCCC3)c3ccccc3F)N2C=C1` (configuration not stated) was run?
Answer: inactive: 1.7%

Question: With `O=C(Nc1ccn(Cc2ccccc2F)n1)c1ccc(COc2ccc(Br)cc2)cc1` as the compound, how does the inhibition read?
Answer: inconclusive: -2%

Question: With `Cc1sc2ncnc(N3CCC(C(=O)Nc4ccc(Br)cc4Br)CC3)c2c1C` as the compound, how does the inhibition read?
Answer: inconclusive: -1.3%

Question: With `O=C(NCC(c1ccco1)N1CCc2ccccc21)c1ccccc1F` (configuration not stated) as the compound, how does the inhibition read?
Answer: inconclusive: 2.2%

Question: Which inhibition does the source give for `COc1ccc(-n2c(-c3ccccc3)cc3c2CCCC3=O)cc1` here?
Answer: inconclusive: 1%

Question: For `CCOC(=O)C1(C)CCN1C(=O)c1ccc(OC)cc1` (configuration not stated), which inhibition is on record?
Answer: inactive: -0.2%

Question: How did the inhibition turn out when `O=[N+]([O-])c1ccc(OCC2CC(c3ccccc3)=NO2)cc1` (configuration not stated) was run?
Answer: inconclusive: -11.1%

Reference: PubChem BioAssay AID588499 (NMMLSC, 2011)
